Results as given in publication PMC9117723.
These are yes or no findings as the source states them, for the method shown. Binding seen in cells or lysates may run through a third protein. Some binding calls cover weakened binding; strength is not graded here.

Chains of the proteins cited; added tags and fusions are not shown.
UniProt Q9JKF1: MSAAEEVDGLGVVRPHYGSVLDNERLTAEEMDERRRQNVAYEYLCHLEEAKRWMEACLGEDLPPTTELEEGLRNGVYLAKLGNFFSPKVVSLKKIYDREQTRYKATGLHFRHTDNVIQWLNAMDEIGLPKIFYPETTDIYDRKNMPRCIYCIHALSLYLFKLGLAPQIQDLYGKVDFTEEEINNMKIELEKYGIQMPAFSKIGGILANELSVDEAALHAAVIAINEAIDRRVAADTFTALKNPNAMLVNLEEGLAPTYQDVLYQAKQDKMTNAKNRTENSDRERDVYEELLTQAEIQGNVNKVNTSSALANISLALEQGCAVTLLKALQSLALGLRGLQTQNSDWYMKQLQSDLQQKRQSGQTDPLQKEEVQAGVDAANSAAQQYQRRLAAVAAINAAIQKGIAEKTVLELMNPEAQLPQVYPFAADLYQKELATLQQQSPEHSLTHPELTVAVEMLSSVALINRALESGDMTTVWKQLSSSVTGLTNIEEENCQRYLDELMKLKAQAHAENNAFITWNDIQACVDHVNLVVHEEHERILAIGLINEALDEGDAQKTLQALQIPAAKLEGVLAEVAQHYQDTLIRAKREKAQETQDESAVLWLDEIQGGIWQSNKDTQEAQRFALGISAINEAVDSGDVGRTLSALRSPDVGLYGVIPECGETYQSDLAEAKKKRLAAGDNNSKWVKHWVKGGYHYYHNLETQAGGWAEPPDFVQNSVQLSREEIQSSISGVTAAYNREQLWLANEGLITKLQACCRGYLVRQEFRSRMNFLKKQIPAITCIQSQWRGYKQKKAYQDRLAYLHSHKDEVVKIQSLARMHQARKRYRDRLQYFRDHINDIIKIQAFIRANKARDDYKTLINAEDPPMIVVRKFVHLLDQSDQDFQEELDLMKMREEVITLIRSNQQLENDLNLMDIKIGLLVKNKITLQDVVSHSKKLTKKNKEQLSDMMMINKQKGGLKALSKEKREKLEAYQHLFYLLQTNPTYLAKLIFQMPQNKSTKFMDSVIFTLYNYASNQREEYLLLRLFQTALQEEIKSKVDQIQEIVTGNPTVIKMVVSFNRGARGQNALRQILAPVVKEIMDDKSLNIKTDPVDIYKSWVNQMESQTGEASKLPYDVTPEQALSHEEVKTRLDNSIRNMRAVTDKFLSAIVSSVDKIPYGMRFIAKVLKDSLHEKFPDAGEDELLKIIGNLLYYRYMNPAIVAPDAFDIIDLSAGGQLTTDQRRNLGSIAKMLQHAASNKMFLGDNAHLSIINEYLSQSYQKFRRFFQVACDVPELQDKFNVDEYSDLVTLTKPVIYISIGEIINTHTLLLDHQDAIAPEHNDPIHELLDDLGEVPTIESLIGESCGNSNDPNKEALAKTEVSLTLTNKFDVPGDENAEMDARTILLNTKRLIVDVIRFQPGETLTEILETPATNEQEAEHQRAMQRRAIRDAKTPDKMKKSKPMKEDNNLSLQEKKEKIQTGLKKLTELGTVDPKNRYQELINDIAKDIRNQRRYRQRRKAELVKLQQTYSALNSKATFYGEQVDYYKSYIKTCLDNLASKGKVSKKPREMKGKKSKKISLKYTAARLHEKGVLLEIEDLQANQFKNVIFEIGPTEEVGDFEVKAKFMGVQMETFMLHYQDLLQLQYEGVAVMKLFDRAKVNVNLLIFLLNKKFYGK

Biological target: IQGAP1, endogenous in mouse kidney (mouse (endogenous in kidney)) (UniProt Q9JKF1)
Assay: co-IP; kidney lysates of wild-type and pendrin knockout mice in PBS-T on anti-IQGAP1 antibody on Dynabead Protein-G, room temperature; western blot with anti-SLC26A4 antibody

B1: SLC26A4 (pendrin), endogenous in mouse kidney (protein, UniProt Q9R155 1-780)
chain: MAARGGRSEPPQLAEYSCSYTVSRPVYSELAFQQQRERRLPERRTLRDSLARSCSCSRKRAFGVVKTLLPILDWLPKYRVKEWLLSDIISGVSTGLVGTLQGMAYALLAAVPVQFGLYSAFFPILTYFVFGTSRHISVGPFPVVSLMVGSVVLSMAPDDHFLVPSGNGSALNSTTLDTGTRDAARVLLASTLTLLVGIIQLVFGGLQIGFIVRYLADPLVGGFTTAAAFQVLVSQLKIVLNVSTKNYNGILSIIYTLIEIFQNIGDTNIADFIAGLLTIIVCMAVKELNDRFKHRIPVPIPIEVIVTIIATAISYGANLEKNYNAGIVKSIPSGFLPPVLPSVGLFSDMLAASFSIAVVAYAIAVSVGKVYATKHDYVIDGNQEFIAFGISNVFSGFFSCFVATTALSRTAVQESTGGKTQVAGLISAVIVMVAIVALGRLLEPLQKSVLAAVVIANLKGMFMQVCDVPRLWKQNKTDAVIWVFTCIMSIILGLDLGLLAGLLFALLTVVLRVQFPSWNGLGSVPSTDIYKSITHYKNLEEPEGVKILRFSSPIFYGNVDGFKKCINSTVGFDAIRVYNKRLKALRRIQKLIKKGQLRATKNGIISDIGSSNNAFEPDEDVEEPEELNIPTKEIEIQVDWNSELPVKVNVPKVPIHSLVLDCGAVSFLDVVGVRSLRMIVKEFQRIDVNVYFALLQDDVLEKMEQCGFFDDNIRKDRFFLTVHDAILHLQNQVKSREGQDSLLETVARIRDCKDPLDLMEAEMNAEELDVQDEAMRRLAS
binding: binds
